{"source": "PubChem BioAssay AID504834", "about": "(National Center for Advancing Translational Sciences (NCATS), 2011)", "note": "Among all 320,000 compounds or so, about 22,000 (6.9%) were called active. Inconclusive means that the source gave no clear call. Such entries were picked first, then a sample of the others. Calls follow the shape of the dose curve; as a rule, active = well fitted inhibition curve with a large enough effect; inconclusive = small, poorly fitted or top-dose-only effect, or another doubt; inactive = no such curve, though single readings can be large or run the other way. Potencies of inconclusive entries are doubtful fits and often do not repeat. % is scaled to controls: 0 for no effect and ±100 for the full control effect; potency is read from the fitted curve at half-maximal effect."}
{"assay": "Primary qHTS for delayed death inhibitors of the malarial parasite plastid, 96 hour incubation", "conditions": "P. falciparum luciferase reporter growth; series mostly up to 28.7 µM; activity change, negative = inhibition: at the top concentration", "outline": "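Two parasite generations (96 h, 37 C, 5% CO2) of compound exposure in infected erythrocytes (0.05% parasitemia, 2% hematocrit). Luciferase-reporter P. falciparum; decreased luminescence indicates inhibited growth, aimed at apicoplast-acting delayed death.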"}
{"compound": "O=C(O)CCCNC(=O)c1ccccn1", "Potency": "inconclusive: 10.4 µM [inhibitor, partial curve]"}
{"compound": "CC1CCN(C(=O)c2cc(-c3ccco3)on2)CC1", "activity change, negative = inhibition": "inactive: 42.4%"}
{"compound": "CC1(COS(N)(=O)=O)CCCCC1", "Potency": "inconclusive: 2.62 µM [inhibitor, partial curve, poor fit]"}
{"compound": "Cc1onc(-c2ccc3c(c2)OCO3)c1-c1ccc2[nH]ccc2c1", "Potency": "inconclusive: 16.5 µM [inhibitor, single point]"}
{"compound": "Cc1ccc(CNC(=O)C2CCCN2S(=O)(=O)c2ccc(F)cc2)cc1", "note": "(centres undefined)", "Potency": "inconclusive: 0.104 µM [inhibitor, full curve, poor fit]"}
{"compound": "CCC(=O)Nc1ccc(NC(=O)C23CC4CC(CC(C4)C2)C3)cn1", "Potency": "inconclusive: 5.22 µM [inhibitor, single point]"}
{"compound": "Cc1cc(NC(=O)c2ccccc2)n(-c2nc3ccccc3[nH]2)n1", "Potency": "inconclusive: 14.7 µM [inhibitor, single point]"}
{"compound": "CCn1cc(C(=O)N2CCN(c3ccccn3)CC2)c(=O)c2cc(S(=O)(=O)N(C)C3CCCCC3)ccc21", "Potency": "inconclusive: 11.7 µM [inhibitor, partial curve, poor fit]"}
{"compound": "Cc1sc2nc(-c3cccnc3)nc(Cl)c2c1-c1ccccc1", "Potency": "inconclusive: 4.15 µM [inhibitor, partial curve, poor fit]"}
{"compound": "O=C(c1nnc(Cc2ccc(Cl)cc2)o1)N1CCOCC1", "Potency": "inconclusive: 9.28 µM [inhibitor, single point]"}
{"compound": "CC(C)(C)NC(=O)c1ccncc1", "Potency": "active: 10.4 µM"}
{"compound": "CCCCCn1c(=O)c(C(=O)Nc2ccccn2)c(O)c2ccccc21", "activity change, negative = inhibition": "inactive: 2.11%"}
{"compound": "N#Cc1ccc(-c2csc(NNC(=O)c3ccccc3)n2)cc1", "Potency": "active: 3.7 µM"}
{"compound": "OCCNCCSc1nc(C2CCCCC2)n(-c2ccccc2Cl)n1", "Potency": "inconclusive: 6.57 µM [inhibitor, partial curve, poor fit]"}
{"compound": "CCOc1ccc(CN2CCN(c3cc(C)nc4c5c(C)cc(C)nc5nn34)CC2)cc1", "Potency": "inconclusive: 0.0029 µM [inhibitor, full curve, poor fit]"}
{"compound": "COc1ccccc1CNC(=O)CCNS(=O)(=O)c1ccc2c(c1)CC(C)N2C(C)=O", "note": "(centres undefined)", "Potency": "inconclusive: 11.7 µM [inhibitor, single point]"}
{"compound": "CC(=O)Nc1cccc(NC(=S)Nc2ccc(F)cc2F)c1", "activity change, negative = inhibition": "inactive: 146%"}
{"compound": "CC1Oc2ccccc2N(CC(=O)c2ccc(F)cc2)C1=O", "note": "(centres undefined)", "activity change, negative = inhibition": "inactive: 44.8%"}
{"compound": "COc1ccc(-c2ccc(-c3nnc(Cc4ccc(OC)c(OC)c4)o3)cc2)cc1", "Potency": "inconclusive: 18.5 µM [inhibitor, single point]"}
{"compound": "Cc1ccc(-c2cc(-c3ccccc3)cc(-c3ccccc3)[n+]2-c2ccccc2)cc1", "Potency": "active: 0.329 µM"}
{"compound": "CC(=O)N1CCCc2cc(S(=O)(=O)N3CCCC(C(=O)NCc4ccccc4Cl)C3)ccc21", "note": "(centres undefined)", "activity change, negative = inhibition": "inactive: 0.829%"}
{"compound": "COCCn1c(Cc2cccn2C)nnc1SCC(=O)NCc1ccc2c(c1)OCO2", "Potency": "inconclusive: 18.5 µM [inhibitor, single point]"}
{"compound": "O=C(/C=C1\\NC2(CCCC2)Cc2ccccc21)C(=O)N/N=C/c1ccc(O)c(O)c1", "Potency": "inconclusive: 0.0465 µM [inhibitor, full curve, poor fit]"}
{"compound": "COc1ccc(OC)c(S(=O)(=O)Nc2ccc(OCC(=O)O)cc2)c1", "Potency": "inconclusive: 9.28 µM [inhibitor, partial curve, poor fit]"}
{"compound": "CCN1CCN(Cc2c(O)ccc3c2O/C(=C\\C=C\\c2ccccc2OC)C3=O)CC1", "Potency": "active: 4.15 µM"}
{"compound": "COC(=O)C(CCCN1C(=O)c2ccccc2C1=O)(NC(C)=O)c1nn[nH]n1", "note": "(centres undefined)", "activity change, negative = inhibition": "inactive: 0.327%"}
{"compound": "CC(=O)Nc1cccc(NC(=O)COc2ccc3c(c2)OCO3)c1", "activity change, negative = inhibition": "inactive: 0.529%"}
{"compound": "O=c1c2c(nc(NCCO)n1CC1CCCCC1)-c1ccccc1CC21CCCC1", "Potency": "inconclusive: 20.8 µM [inhibitor, partial curve, poor fit]"}
{"compound": "C#CCOCCOCCOCCNc1nc(N2CCN(C(=O)CCCCCCCCCCNC(=O)[C@@H](CCC(=O)O)n3cc(CCCCCN)nn3)CC2)nc(N2CCN(C(=O)CCCCCCCCCCNC(=O)[C@H](CO)n3cc(CCCCCN)nn3)CC2)n1", "Potency": "active: 5.86 µM"}
{"compound": "COCCNC(=O)c1ccccc1NC(=O)c1ccccc1SC", "activity change, negative = inhibition": "inactive: -22.1%"}
{"compound": "CCCS(=O)(=O)Nc1ccc(N2CCCCC2)c(S(=O)(=O)Nc2ccccc2OC)c1", "Potency": "active: 13.1 µM"}
{"compound": "O=C(CCCc1ccccc1)NCCc1cnc[nH]1", "activity change, negative = inhibition": "inactive: 29.3%"}
{"compound": "O=C(CSc1ccc(-c2cccnc2)nn1)Nc1ccc(F)c(F)c1", "Potency": "inconclusive: 0.0185 µM [inhibitor, full curve, poor fit]"}
{"compound": "CCC1CCCCN1S(=O)(=O)c1ccc(NC(=O)c2nc(S(C)(=O)=O)ncc2Cl)cc1", "note": "(centres undefined)", "activity change, negative = inhibition": "inactive: -13.4%"}
{"compound": "CCN(CC)CCCNC(=O)c1cc(-c2ccccc2)c(N2CCCCC2)s1", "Potency": "inconclusive: 11.7 µM [inhibitor, single point]"}
{"compound": "NC(=S)NN=C(Cc1ccccc1)Cc1ccccc1", "Potency": "inconclusive: 5.22 µM [inhibitor, single point]"}
{"compound": "CN(C1CCCCC1)S(=O)(=O)c1ccc(-c2ccccn2)s1", "activity change, negative = inhibition": "inactive: -1.15%"}
{"compound": "Cc1ccc(S(=O)(=O)c2nc(C)oc2N2CCOCC2)cc1", "Potency": "inconclusive: 10.4 µM [inhibitor, partial curve, poor fit]"}
{"compound": "O=C(NCCN1CCN(c2ccccc2F)CC1)C1c2ccccc2C(=O)N2CCc3ccccc3C12", "note": "(centres undefined)", "Potency": "inconclusive: 18.5 µM [inhibitor, single point]"}
{"compound": "CC(=O)Nc1ccc(S(=O)(=O)N2CCN(C(=O)c3ncoc3-c3ccc(F)cc3)CC2)cc1", "Potency": "inconclusive: 13.1 µM [inhibitor, single point]"}
{"compound": "CCOc1ccccc1-n1c(SCC(=O)NC)nnc1-c1ccco1", "activity change, negative = inhibition": "inactive: 7.81%"}
{"compound": "COc1cccc(NC(=S)N2CCN(S(=O)(=O)c3ccc(F)cc3)CC2)c1", "Potency": "inconclusive: 6.57 µM [inhibitor, partial curve]"}
{"compound": "Cc1ccc(C)c(OC(=O)c2cccc(S(=O)(=O)N3CCN(C)CC3)c2)c1", "Potency": "inconclusive: 9.28 µM [inhibitor, single point]"}
{"compound": "CCC(CC)C(=O)N(CCc1ccc(OC)cc1)Cc1nc2ccccc2c(=O)[nH]1", "Potency": "active: 11.7 µM"}
